No constants are given. Whether binding was seen depends on the method and setting. In cells and extracts the contact can be indirect. These calls come from enrichment with a bait or labelling near it, and not all partners need be listed. For part of these data: A no says only that the protein was not detected with the bait.
Columns and labels:
[1] = target: BSA (bovine (from the name BSA)) (UniProt P02769); test: affinity purification with mass spectrometry; PfPP1 (or BSA as control) covalently coupled to Sepharose beads; precleared total soluble extract of blood stage parasites, overnight at 4 °C; 5 washes with 50 mM Tris, 0.3 M NaCl; elution with 3 M NaSCN; SDS-PAGE, stained bands cut for MS/MS; only the target purified
[2] = target: P. falciparum protein phosphatase type-1 (PfPP1) recombinant protein, coupled to Sepharose (Plasmodium falciparum) (UniProt Q8ILV1); test: as above

Amino acid sequences for entries named in this document (tags omitted). Residues count along the entry.
UniProt P02769, residues 25-607: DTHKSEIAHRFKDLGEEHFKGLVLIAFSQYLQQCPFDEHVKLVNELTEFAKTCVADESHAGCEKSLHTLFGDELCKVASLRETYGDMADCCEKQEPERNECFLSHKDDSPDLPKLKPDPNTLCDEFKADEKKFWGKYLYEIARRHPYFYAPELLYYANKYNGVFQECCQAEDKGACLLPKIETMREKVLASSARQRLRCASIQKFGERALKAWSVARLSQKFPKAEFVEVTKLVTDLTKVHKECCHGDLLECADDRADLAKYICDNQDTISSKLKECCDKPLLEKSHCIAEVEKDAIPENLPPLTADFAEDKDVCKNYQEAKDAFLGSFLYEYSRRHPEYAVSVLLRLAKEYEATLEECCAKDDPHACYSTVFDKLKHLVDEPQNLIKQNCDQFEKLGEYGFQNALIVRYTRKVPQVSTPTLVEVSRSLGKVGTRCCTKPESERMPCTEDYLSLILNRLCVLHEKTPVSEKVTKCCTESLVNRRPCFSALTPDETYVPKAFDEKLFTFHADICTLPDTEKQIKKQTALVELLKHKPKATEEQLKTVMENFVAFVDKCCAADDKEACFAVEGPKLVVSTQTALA
UniProt Q8ILV1: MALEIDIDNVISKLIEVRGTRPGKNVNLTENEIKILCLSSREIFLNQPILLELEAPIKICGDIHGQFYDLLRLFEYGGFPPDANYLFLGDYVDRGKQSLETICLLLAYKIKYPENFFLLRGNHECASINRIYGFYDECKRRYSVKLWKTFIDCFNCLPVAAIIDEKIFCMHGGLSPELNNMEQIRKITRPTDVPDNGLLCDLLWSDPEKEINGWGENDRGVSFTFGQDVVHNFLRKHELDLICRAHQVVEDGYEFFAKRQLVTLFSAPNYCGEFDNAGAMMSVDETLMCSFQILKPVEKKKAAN
UniProt Q8IKK7: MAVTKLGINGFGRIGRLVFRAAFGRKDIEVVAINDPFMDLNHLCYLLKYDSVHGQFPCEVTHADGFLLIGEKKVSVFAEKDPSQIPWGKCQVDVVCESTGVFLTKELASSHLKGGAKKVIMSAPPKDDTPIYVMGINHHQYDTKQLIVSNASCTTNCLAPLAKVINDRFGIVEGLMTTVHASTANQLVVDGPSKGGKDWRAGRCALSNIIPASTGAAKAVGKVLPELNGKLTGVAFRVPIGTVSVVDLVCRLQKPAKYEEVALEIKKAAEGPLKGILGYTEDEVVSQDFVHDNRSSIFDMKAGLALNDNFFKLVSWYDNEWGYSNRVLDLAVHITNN
UniProt Q8IC05: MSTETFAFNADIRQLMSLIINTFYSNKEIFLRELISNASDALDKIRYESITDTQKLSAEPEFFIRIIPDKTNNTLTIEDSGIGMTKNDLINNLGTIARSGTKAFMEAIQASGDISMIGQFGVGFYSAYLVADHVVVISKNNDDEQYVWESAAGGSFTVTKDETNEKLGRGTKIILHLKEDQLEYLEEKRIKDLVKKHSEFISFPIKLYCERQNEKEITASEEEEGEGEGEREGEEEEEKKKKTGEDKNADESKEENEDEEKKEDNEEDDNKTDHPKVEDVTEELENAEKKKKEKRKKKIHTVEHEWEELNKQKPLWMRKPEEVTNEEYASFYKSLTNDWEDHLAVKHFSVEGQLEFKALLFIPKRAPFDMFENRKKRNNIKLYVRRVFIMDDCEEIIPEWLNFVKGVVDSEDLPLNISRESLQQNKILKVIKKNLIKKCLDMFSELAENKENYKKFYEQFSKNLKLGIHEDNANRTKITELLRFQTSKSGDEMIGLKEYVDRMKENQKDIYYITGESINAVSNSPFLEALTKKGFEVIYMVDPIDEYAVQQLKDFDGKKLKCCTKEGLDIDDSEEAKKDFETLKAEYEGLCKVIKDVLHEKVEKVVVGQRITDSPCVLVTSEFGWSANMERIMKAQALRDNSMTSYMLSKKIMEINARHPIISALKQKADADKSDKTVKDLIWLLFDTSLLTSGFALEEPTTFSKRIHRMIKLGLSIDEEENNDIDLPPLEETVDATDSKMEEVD

Substance: glyceraldehyde-3-phosphate dehydrogenase (GAPDH) (from UniProt Q8IKK7 1-337)
- binding [1]: no binding
- binding [2]: binds

Substance: protein disulfide isomerase (PDI8) (from UniProt C0H4Y6)
- binding [1]: no binding
- binding [2]: binds

Substance: heat shock protein 90 (HSP90) (from UniProt Q8IC05 1-745)
- binding [1]: no binding
- binding [2]: binds
